PubChem BioAssay AID686943, Drosophila RNAi Screening Center | 2013

Aim: 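Fly genes whose loss alters ERK activation after insulin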 (primary screen)
Cell system: Drosophila S2R+ haemocyte-like cells expressing YFP-tagged ERK (Rolled)
Reagents: long dsRNA against Drosophila genes
Conditions: insulin stimulation versus unstimulated cells; dose and duration not given
Measurement: 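Per-plate z-scores of phospho-ERK immunostaining normalised to YFP-tagged ERK, measured with and without insulin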
Scale: replicate 1, z-score of dpERK with insulin: higher = more active ERK per ERK-YFP after insulin
The deposit covers about 23,000 reagents; shown is a random part of those with a known target gene and a result. 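Extra replicates exist only for a retested subset of genes; insulin dose and duration not given; both raised and lowered dpERK matter.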 Reagents against one gene are numbered here. Names joined by + are all predicted targets of the reagent. Not all columns of the deposit are shown. Not stated in the record: the amount of reagent, the time to read-out.

| Target gene | dsRNA no. | replicate 1, z-score of dpERK with insulin |
| --- | --- | --- |
| vlc | 1 | -0.2 |
| gas | 1 | 0.01 |
| CG11905 | 1 | -0.34 |
| CG30154 | 1 | 0.33 |
| shps | 1 | 0.26 |
| Itgbn | 1 | 0.67 |
| LS2 | 1 | -1.89 |
| del | 1 | 1.13 |
| jing | 1 | 0.31 |
| jing | 2 | -0.9 |
| jing | 3 | 0.33 |
| COX6CL | 1 | -1.23 |
| CG42811 | 1 | 0.28 |
| CG33458 | 1 | 1.58 |
| E5 | 1 | -2.77 |
| E5 | 2 | -1.38 |
| Wdr82 | 1 | 0.61 |
| Wdr82 | 2 | -0.49 |
| CG34045 | 1 | 0.76 |
| Qsox1 | 1 | 1.3 |
| CG34247 | 1 | -0.35 |
| CG34459 | 1 | -0.7 |
| Osi15 | 1 | 0.62 |
| CG17841 | 1 | -0.96 |
| Past1 | 1 | -0.32 |
| CG7523 | 1 | -0.64 |
| koko + Vti1b | 1 | 1.56 |
| koko + Vti1b | 2 | 0.87 |
| CG6179 | 1 | -1.67 |
| Idgf2 | 1 | 0.81 |
| rod | 1 | 1.11 |
| ver | 1 | -0.05 |
| wapl | 1 | 1.5 |
| ImpL2 | 1 | -0.85 |
| CG1271 | 1 | -0.1 |
| thr | 1 | -1.39 |
| Tmtc3 | 1 | -0.26 |
| RpL38 | 1 | -2.19 |
| CG12391 | 1 | -0.33 |
| CG16868 | 1 | 0.59 |
| Spg7 | 1 | 0.33 |
| Tango6 | 1 | 2.23 |
| hale | 1 | 0.32 |
| CG17930 | 1 | -0.46 |
| CG9997 | 1 | 0.46 |
| CG32379 | 1 | -0.17 |
| Spn88Eb | 1 | -0.14 |
| CG12851 | 1 | -0.74 |
| trn | 1 | -0.43 |
| lncRNA:CR31647 | 1 | -0.32 |
| sxc | 1 | -0.32 |
| sqh | 1 | 0.06 |
| upSET | 1 | -0.56 |
| CG42810 | 1 | 0.9 |
| mRpL43 | 1 | 0.12 |
| mRpL43 | 2 | 0.1 |
| CG14561 | 1 | 1.02 |
| wupA | 1 | 0.6 |
| wupA | 2 | 0.41 |
| Xpd | 1 | 1 |
| CG14968 | 1 | 0.66 |
| Muc18B | 1 | 0.75 |
| Muc18B | 2 | -0.63 |
| Ent2 | 1 | -0.15 |
| CG12567 | 1 | 0.54 |
| Trax | 1 | 1.07 |
| Hasp | 1 | -0.24 |
| CG9068 | 1 | 0.34 |
| CG31820 | 1 | 0.02 |
| Cp7Fc | 1 | -0.27 |
| Cpr49Af | 1 | 0.24 |
| IP3K1 | 1 | 0.01 |
| CG43901 | 1 | 0.5 |
| CG43901 | 2 | -0.09 |
| CG43901 | 3 | 1.19 |
| CG43901 | 4 | 0.46 |

Part of the list above, set out differently.
{"Target gene":"thr","dsRNA no.":1,"replicate 1, z-score of dpERK with insulin":-1.39}
{"Target gene":"Tmtc3","dsRNA no.":1,"replicate 1, z-score of dpERK with insulin":-0.26}
{"Target gene":"RpL38","dsRNA no.":1,"replicate 1, z-score of dpERK with insulin":-2.19}
